Laboratory results: PubChem BioAssay (EPA / NIEHS)
The shares of active, inactive and inconclusive entries below differ from those in the screen. For some assays here: Potencies beside an inconclusive call are fits to weak or partial responses and may not hold up. Some compounds were tested as several samples or in several runs, with calls that do not always agree. Activity calls are given as the source filed them. Rule for the calls: active = hit-call score of the fitted dose curve at least 0.9, where 1 is the maximum; inconclusive = response in the unintended direction; inactive = score below 0.9.

Amino acid sequences for entries named in this document (tags omitted). A change or cut given only in a name is not applied to a line headed by its entry.
UniProt P33535, whole entry, looked up: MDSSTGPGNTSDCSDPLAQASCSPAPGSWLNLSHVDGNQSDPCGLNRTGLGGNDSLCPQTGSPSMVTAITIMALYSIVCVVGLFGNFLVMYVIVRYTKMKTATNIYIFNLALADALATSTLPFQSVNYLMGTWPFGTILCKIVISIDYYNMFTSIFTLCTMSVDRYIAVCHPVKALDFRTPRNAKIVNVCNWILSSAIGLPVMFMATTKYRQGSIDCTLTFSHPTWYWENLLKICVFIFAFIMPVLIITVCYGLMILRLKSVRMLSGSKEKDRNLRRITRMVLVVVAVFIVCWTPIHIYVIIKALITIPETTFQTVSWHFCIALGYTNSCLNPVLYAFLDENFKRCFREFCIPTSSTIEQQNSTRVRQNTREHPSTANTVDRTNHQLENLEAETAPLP
UniProt P08219: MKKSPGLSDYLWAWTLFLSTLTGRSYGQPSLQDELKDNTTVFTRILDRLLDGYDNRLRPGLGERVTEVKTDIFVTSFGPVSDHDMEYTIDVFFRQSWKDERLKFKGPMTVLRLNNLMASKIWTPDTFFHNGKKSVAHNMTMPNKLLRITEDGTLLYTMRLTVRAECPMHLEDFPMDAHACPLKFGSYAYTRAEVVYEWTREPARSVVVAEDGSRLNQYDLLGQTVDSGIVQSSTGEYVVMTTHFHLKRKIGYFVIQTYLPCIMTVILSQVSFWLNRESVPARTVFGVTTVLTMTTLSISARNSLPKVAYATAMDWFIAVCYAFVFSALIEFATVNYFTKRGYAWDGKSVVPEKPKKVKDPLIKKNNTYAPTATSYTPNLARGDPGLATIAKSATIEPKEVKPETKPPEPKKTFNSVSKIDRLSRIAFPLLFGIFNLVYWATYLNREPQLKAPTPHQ
UniProt Q08E50: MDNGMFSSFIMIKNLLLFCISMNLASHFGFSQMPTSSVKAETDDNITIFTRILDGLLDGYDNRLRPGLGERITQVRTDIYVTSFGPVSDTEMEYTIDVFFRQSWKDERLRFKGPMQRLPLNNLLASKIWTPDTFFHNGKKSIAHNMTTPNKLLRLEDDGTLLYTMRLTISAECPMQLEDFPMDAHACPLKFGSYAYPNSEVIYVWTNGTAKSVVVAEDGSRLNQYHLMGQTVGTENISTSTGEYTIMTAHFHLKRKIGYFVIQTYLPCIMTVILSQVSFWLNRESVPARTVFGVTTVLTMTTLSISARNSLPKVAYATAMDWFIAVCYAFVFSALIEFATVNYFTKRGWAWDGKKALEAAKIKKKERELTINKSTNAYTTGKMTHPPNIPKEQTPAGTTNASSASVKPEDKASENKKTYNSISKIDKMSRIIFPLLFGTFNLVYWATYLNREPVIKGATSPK
UniProt P46098, whole entry, looked up: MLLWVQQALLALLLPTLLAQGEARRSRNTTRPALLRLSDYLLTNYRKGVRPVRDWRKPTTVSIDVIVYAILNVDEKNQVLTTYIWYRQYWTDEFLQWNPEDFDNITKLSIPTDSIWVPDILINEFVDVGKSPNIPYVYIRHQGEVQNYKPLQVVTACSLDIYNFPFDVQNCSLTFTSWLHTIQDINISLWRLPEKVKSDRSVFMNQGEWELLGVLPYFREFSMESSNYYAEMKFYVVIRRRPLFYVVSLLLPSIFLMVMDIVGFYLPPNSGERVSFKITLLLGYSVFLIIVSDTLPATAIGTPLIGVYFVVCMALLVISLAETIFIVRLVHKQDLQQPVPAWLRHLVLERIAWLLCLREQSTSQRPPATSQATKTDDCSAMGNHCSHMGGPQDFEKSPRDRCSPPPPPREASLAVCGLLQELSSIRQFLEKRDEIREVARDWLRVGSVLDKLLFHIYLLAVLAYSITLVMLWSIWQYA

Target: Voltage-dependent N-type calcium channel subunit alpha-1B (Rattus norvegicus) (UniProt Q02294)
Assay: NVS_IC_rCaChN: NovaScreen (NVS) Ion Channel Assay for rat Calcium Channel, Type N (CaChN) (AID 2283317)

Structure (SMILES)	outcome	AC50
O=C(N[C@H]1CN2CCC1CC2)c1cc2ccoc2cn1	inactive	–
O=[N+]([O-])c1c(Cl)c(Cl)c(Cl)c(Cl)c1Cl	–	inconclusive: 25 µM
C[C@]12CCC(=O)C[C@@H]1CC[C@@H]1[C@@H]2CC[C@]2(C)[C@@H](O)CC[C@@H]12	–	inconclusive: 21.8 µM
CCNc1nc(Cl)nc(NCC)n1	inactive	–
O=c1[nH]c(=O)[nH]c(=O)[nH]1	inactive	–

Target: rat Opioid Receptor, Non-selective Binding, Oprm1 (gene 25601) (UniProt P33535)
Assay: NVS_GPCR_rOpiate_NonSelective: NovaScreen (NVS) G Protein-Coupled Receptor Assay for rat Opioid Receptor, Non-selective Binding (AID 2283318)
Outline: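 Filter-based radioligand displacement using rat forebrain membrane preparations, measured 1.5 h post-dosing. Single-concentration duplicate screen at 25 uM, follow-up in concentration series; activity taken as signal loss relative to DMSO.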

Structure (SMILES)	AC50	outcome
COP(=S)(OC)Oc1nc(Cl)c(Cl)cc1Cl	inconclusive: 25 µM	–
CCOP(=O)(OCC)Oc1nc(Cl)c(Cl)cc1Cl	active: 11.1 µM	–
CO/C=C(/C(=O)OC)c1ccccc1Oc1cc(Oc2ccccc2C#N)ncn1	active: 6.66 µM	inactive

System: not listed separately
Assay: NVS_IC_rCaDHPRCh_L: NovaScreen (NVS) Ion Channel Assay for rat Calcium Channel, Type L, Dihydropyridine Site (CaDHPRCh_L) (AID 2283320)
Outline: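 Rat cortex membrane preparation; dihydropyridine-site radioligand displacement read 1 h post-dose by filtration and scintillation. Primary single-point screen 25 uM in duplicate, then concentration series to 50 uM maximum; DMSO as negative control.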

Structure (SMILES)	outcome	AC50
COC(=O)c1c(C(F)F)nc(C(F)(F)F)c(C2=NCCS2)c1CC(C)C	inactive	–
Oc1cccc2cccnc12	inactive	–
CCCOCC(=Nc1ccc(Cl)cc1C(F)(F)F)n1ccnc1	inactive	–
CC1(C)C(C=C(Cl)Cl)C1C(=O)OC(C#N)c1ccc(F)c(Oc2ccccc2)c1 (stereo unspecified)	–	inconclusive: 5.82 µM

Target: bovine Gamma-Aminobutyric Acid Type A Receptor BDZ, alpha 1 site (GABARa1), GABRA1 (gene 780973) (UniProt P08219)
Assay: NVS_LGIC_bGABARa1: NovaScreen (NVS) Ligand-Gated Ion Channel Assay for bovine Gamma-Aminobutyric Acid Type A Receptor BDZ, alpha 1 site (GABARa1) (AID 2283321)
Description: NVS_LGIC_bGABARa1 is a biochemical, single-readout assay that uses extracted gene-proteins from Bovine cortical membranes in a tissue-based cell-free assay. Measurements were taken 0.75 hour after chemical dosing in a 48-well plate.NVS_LGIC_bGABARa1 is one of one assay component(s) measured or calculated from the NVS_LGIC_bGABARa1 assay. It is designed to make measurements of radioligand binding, a form of binding reporter, as detected with scintillation counting signals by Filter-based radiodetection technology.Data from the assay component NVS_LGIC_bGABARa1 was analyzed into 1 assay endpoint. This assay endpoint, NVS_LGIC_bGABARa1, was analyzed in the positive analysis fitting direction relative to DMSO as the negative control and baseline of activity. Using a type of binding reporter, loss-of-signal activity can be used to understand changes in the binding as they relate to the gene GABRA1. Furthermore, this assay endpoint can be referred to as a primary readout, because the performed assay has only produced 1 assay endpoint. To generalize the intended target to other relatable targets, this assay endpoint is annotated to the ion channel intended target family, where the subfamily is ligand-gated ion channel.
Binding assays used specific radioligands (tritiated, iodinated) with non-radioactive competitive displacement ligands in agonist or antagonist protocols (as indicated) and various reference compounds and inhibitors to titrate specific binding to receptors and transporters. Most enzyme assays (CYPs, kinases, phosphatases, proteases, HDACs) used recombinant protein and specific substrates (fluorescence mostly, some colorimetric and radioactive) and inhibitors, followed by a biochemical separation of substrate and product. All assays for the biochemical HTS were initially run in duplicate at a single concentration (10 uM for CYP450 assays and 25 uM for all others). Assay-chemical combinations meeting a pre-defined threshold (e.g., 30% inhibition and other criteria defined below) were then run in singleton concentration-response format with maximum concentration of 20 uM for CYPs and 50 uM for all others. Each assay was run with positive and negative controls, and concurrent controls on every plate. The follow-up (secondary) screen tested active chemical-pairs in concentration series, as well as a few additional assays not tested in the primary screen, some selected negative inactives, and several cases re-run in the concentration series for confirmatory purposes.

Structure (SMILES)	AC50	outcome
CC(C)N(C(=O)COc1nnc(C(F)(F)F)s1)c1ccc(F)cc1	active: 14.2 µM	–
CC(c1ccc(O)cc1)(c1ccc(O)cc1)c1ccc(O)cc1	–	inactive
COP(=S)(OC)SCn1nnc2ccccc2c1=O	active: 10.1 µM	–

Target: bovine Gamma-Aminobutyric Acid Type A Receptor BDZ, alpha 5 site (GABARa5), GABRA5 (gene 523515) (UniProt Q08E50)
Assay: NVS_LGIC_bGABARa5: NovaScreen (NVS) Ligand-Gated Ion Channel Assay for bovine Gamma-Aminobutyric Acid Type A Receptor BDZ, alpha 5 site (GABARa5) (AID 2283323)
Outline: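 Tested first in duplicate at a single 25 uM, with hits re-run in concentration series to a 50 uM maximum. Bovine hippocampal membranes; specific radioligand displacement measured by filter scintillation counting 1 hr post-dose.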

Structure (SMILES)	AC50	outcome
CC(C)(O)c1cnn2c(-c3ccc(F)c(-c4c(F)cccc4C#N)c3)cnc2n1	active: 0.00229 µM	–
O=S1OCC2C(CO1)C1(Cl)C(Cl)=C(Cl)C2(Cl)C1(Cl)Cl (stereo unspecified)	inconclusive: 0.488 µM	–
Cn1sc(Cl)cc1=O	inconclusive: 0.622 µM	–
O=[N+]([O-])c1cc(C(F)(F)F)c(Cl)c([N+](=O)[O-])c1Nc1ncc(C(F)(F)F)cc1Cl	–	inactive
O=C(Nc1ccccc1)Nc1cnns1	active: 7.77 µM	–
CCC1(c2ccccc2)C(=O)N=C(O)NC1=O (stereo unspecified)	inconclusive: 6.6 µM	–

2 compounds drawn at random from the list so far:
Structure (SMILES)	AC50	outcome
O=[N+]([O-])c1cc(C(F)(F)F)c(Cl)c([N+](=O)[O-])c1Nc1ncc(C(F)(F)F)cc1Cl	–	inactive
Cn1sc(Cl)cc1=O	inconclusive: 0.622 µM	–

Target: human Serotonin, 5-Hydroxytryptamine Receptor 3 (5HT3), HTR3A (gene 3359) (UniProt P46098)
Assay: NVS_LGIC_h5HT3: NovaScreen (NVS) Ligand-Gated Ion Channel Assay for human Serotonin, 5-Hydroxytryptamine Receptor 3 (5HT3) (AID 2283325)
Outline: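 Initially tested at 25 uM in duplicate, then up to 50 uM in concentration-response for actives, compounds competed with a radioligand for HEK293-derived human 5-HT3 receptor. Bound counts were measured by filtration and scintillation at 1 h; loss of signal versus DMSO.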

Structure (SMILES)	AC50
O=C(N[C@H]1CN2CCC1CC2)c1cc2ccoc2cn1	active: 1.35 µM
CCCCCCCCCCCCCN1CC(C)OC(C)C1 (stereo unspecified)	inconclusive: 6.12 µM
CCc1nn(C)c(C(=O)NCc2ccc(C(C)(C)C)cc2)c1Cl	inconclusive: 25 µM
CC(C)(C)c1ccc(CSc2cnn(C(C)(C)C)c(=O)c2Cl)cc1	inconclusive: 0.0347 µM
